This assay concerns the target His-AMPK (UniProt Q13131). Put plainly: pull-down; HEK293T co-transfected with V5-TDRD7 constructs and His-AMPK; AMPK pulled down by Ni-NTA-agarose from lysates overnight at 4°C; immunoblot for TDRD7. (In general: In western blotting, separated proteins are transferred to a membrane and probed.)

The chains behind the UniProt entries cited, without tags or fusion partners.
UniProt Q13131: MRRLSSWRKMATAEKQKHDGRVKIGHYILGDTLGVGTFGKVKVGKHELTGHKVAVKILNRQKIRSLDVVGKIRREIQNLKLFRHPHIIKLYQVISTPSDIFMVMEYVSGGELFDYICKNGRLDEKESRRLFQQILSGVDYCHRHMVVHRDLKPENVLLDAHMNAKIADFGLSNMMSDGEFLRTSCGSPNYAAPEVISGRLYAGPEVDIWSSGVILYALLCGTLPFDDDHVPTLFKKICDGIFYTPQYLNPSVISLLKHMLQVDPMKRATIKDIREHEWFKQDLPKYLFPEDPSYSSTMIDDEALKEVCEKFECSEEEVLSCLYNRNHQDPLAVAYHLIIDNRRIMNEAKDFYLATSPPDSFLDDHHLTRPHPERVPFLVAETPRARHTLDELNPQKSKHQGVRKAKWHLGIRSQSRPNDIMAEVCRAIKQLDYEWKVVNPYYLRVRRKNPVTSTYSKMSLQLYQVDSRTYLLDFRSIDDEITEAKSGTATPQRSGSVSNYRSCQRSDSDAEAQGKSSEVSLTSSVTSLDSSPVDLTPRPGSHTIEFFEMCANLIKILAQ
UniProt Q8NHU6: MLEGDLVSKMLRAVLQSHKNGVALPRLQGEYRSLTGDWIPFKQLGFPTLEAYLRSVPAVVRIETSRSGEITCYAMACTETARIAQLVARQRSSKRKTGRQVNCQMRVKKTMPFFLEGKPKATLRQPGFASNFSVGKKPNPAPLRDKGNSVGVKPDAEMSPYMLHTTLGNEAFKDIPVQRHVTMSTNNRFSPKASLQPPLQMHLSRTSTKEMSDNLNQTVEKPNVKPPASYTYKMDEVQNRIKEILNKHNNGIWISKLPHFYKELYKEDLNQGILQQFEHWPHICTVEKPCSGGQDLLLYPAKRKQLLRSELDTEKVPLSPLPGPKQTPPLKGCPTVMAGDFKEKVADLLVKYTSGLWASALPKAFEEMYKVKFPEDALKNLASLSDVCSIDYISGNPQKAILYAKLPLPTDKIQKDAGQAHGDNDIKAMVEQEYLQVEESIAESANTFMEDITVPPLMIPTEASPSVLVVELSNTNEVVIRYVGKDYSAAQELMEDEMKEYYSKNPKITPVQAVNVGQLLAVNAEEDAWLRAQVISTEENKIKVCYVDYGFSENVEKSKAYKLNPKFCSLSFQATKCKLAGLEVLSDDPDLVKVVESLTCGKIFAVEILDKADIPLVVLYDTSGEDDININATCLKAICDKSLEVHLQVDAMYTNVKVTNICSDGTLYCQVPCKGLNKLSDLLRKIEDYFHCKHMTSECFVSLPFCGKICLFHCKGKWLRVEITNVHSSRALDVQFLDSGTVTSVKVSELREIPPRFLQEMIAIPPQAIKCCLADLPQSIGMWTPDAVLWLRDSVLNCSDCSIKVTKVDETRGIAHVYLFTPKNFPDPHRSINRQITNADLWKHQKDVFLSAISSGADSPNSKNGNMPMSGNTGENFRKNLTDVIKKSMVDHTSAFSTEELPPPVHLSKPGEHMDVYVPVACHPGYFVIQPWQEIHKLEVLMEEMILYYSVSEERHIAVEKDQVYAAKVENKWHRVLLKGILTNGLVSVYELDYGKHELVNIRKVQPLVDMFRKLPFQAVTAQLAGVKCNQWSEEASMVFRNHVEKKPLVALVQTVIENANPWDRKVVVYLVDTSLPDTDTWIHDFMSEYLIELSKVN

This is an account of results in paper PMC10653931.

These are yes or no findings as the source states them, for the method shown. In cells and extracts the contact can be indirect. Some entries that bind do so weakly or less than the wild type.

On to “V5-TDRD7 (human Tudor domain containing 7, wild type) (from UniProt Q8NHU6 1-1098)”, for which the binding result is “binds”.
